Source: article doi:10.1101/2023.03.27.534359
These are yes or no findings as the source states them, for the method shown. In cells and extracts the contact can be indirect. Tags and fused reporters may be left off the sequences shown.

The chains behind the UniProt entries cited, without tags or fusion partners. Where a name states a change or a piece, a line headed by the entry shows the natural chain unless it says otherwise.
UniProt P09471: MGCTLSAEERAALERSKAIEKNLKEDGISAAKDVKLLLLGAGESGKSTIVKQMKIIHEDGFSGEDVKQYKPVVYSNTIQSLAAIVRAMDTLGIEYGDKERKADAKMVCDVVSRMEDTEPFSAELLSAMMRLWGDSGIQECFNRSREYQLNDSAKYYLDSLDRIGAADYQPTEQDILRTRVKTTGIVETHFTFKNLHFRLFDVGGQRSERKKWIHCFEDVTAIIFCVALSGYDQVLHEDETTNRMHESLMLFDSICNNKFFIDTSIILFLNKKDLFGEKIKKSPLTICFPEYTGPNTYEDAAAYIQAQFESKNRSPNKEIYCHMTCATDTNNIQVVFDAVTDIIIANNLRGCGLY

Experiments:
Assay in all cases: co-IP
[1] = target: Gαo-GFP I279N (human) (UniProt P09471)
[2] = target: Gαo-GFP N270H (human) (UniProt P09471)
[3] = target: Gαo-GFP Q233P (human) (UniProt P09471)
[4] = target: Gαo-GFP L199P (human) (UniProt P09471)
[5] = target: Gαo-GFP F275S (human) (UniProt P09471)
[6] = target: Gαo-GFP A227V (human) (UniProt P09471)
[7] = target: Gαo-GFP C215Y (human) (UniProt P09471)
[8] = target: Gαo-GFP Y231C (human) (UniProt P09471)
[9] = target: Gαo-GFP D174G (human) (UniProt P09471)
[10] = target: Gαo-GFP G40R (human) (UniProt P09471)
[11] = target: Gαo-GFP G45E (human) (UniProt P09471)
[12] = target: Gαo-GFP E237K (human) (UniProt P09471)
[13] = target: Gαo-GFP S47G (human) (UniProt P09471)
[14] = target: Gαo-GFP E246K (human), P09471; settings: remark: other sources report otherwise
[15] = target: Gαo-GFP R209C (human), P09471; settings: remark: other sources report otherwise
[16] = target: Gαo-GFP G203R (human), P09471; settings: remark: other sources report otherwise

binding [1]	binding [2]	binding [3]	binding [4]	binding [5]	binding [6]	binding [7]	binding [8]	binding [9]	binding [10]	binding [11]	binding [12]	binding [13]	binding [14]	binding [15]	binding [16]	Binder
no binding	no binding	no binding	no binding	no binding	no binding	no binding	no binding	no binding	no binding	no binding	no binding	no binding				His6-tagged RGS19 (protein, UniProt P49795 1-217) MPTPHEAEKQITGPEEADRPPSMSSHDTASPAAPSRNPCCLCWCCCCSCSWNQERRRAWQASRESKLQPLPSCEVCATPSPEEVQSWAQSFDKLMHSPAGRSVFRAFLRTEYSEENMLFWLACEELKAEANQHVVDEKARLIYEDYVSILSPKEVSLDSRVREGINKKMQEPSAHTFDDAQLQIYTLMHRDSYPRFLSSPTYRALLLQGPSQSSSEA
													no binding	no binding	no binding	His6-tagged RGS19, P49795 1-217 (protein) MPTPHEAEKQITGPEEADRPPSMSSHDTASPAAPSRNPCCLCWCCCCSCSWNQERRRAWQASRESKLQPLPSCEVCATPSPEEVQSWAQSFDKLMHSPAGRSVFRAFLRTEYSEENMLFWLACEELKAEANQHVVDEKARLIYEDYVSILSPKEVSLDSRVREGINKKMQEPSAHTFDDAQLQIYTLMHRDSYPRFLSSPTYRALLLQGPSQSSSEA
